Measurements from “University of Dundee, Small-Polar-MMV Screening Library” (2021), ChEMBL document CHEMBL3988442.

Each number is a percent effect as filed.
The controls that fix the scale are not given in the record; negative values are as filed.
Compounds were drawn at random from those tested, without regard to their results.
Two or more numbers in one place are separate tests of the same structure; such repeats can differ widely.

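Viability assay of Plasmodium falciparum sporozoites; the read-out is not stated. The concentration is filed as 10 mM, unlikely as a test dose, so the dose is not known. Higher reads as lower viability (inferred: compounds with an IC50 in retests scored well above the rest). Strong results were mostly tested again. Of about 34,000 compounds tested this way, about 280 (0.84%) reached 50% or more in at least one test.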

| # | compound | percent effect |
|---|---|---|
| 1 | `COc1nn(C)c2c1CCCN(C(=O)c1cccc(C)n1)C2.O=C(O)C(F)(F)F` | 6.24 |
| 2 | `Cc1cc(CN2CCOC(CN(C)c3cccnn3)C2)no1` (stereo not drawn) | -0.6936 |
| 3 | `O[C@H]1[C@H](n2cc(-c3cccnc3)nn2)c2ccccc2C12CCNCC2` | -18.59 |
| 4 | `COc1ccc(C(C)N2CCN(Cc3nccn3C)CC2)cc1Cl` (stereo not drawn) | -1.308 |
| 5 | `Cc1cc(S(=O)(=O)Nc2cccc(-n3cccc3)c2)sc1C(=O)O` | 0.692 |
| 6 | `CCCN1Cc2ccccc2CC1C(=O)NC` (stereo not drawn) | -3.834 |
| 7 | `O=C(O)C(F)(F)F.[H][C@]12CCCN(Cc3cccc(C)n3)[C@@]1([H])CN(C(=O)c1ccco1)C2` | -10.22 |
| 8 | `CCOc1cc2c(cc1CNC(Cc1cccs1)c1nccs1)OCO2.Cl` (stereo not drawn) | 15.29 |
| 9 | `O=C(O)C(F)(F)F.O=C(O)C(F)(F)F.O=C(O)C(F)(F)F.c1cncc(COCc2cncc3c2CCN(Cc2ccoc2)C3)c1` | 0.5673 and -14.72 and -30.82 |
| 10 | `O=C(Cc1ccc2c(c1)CCO2)N1CCCC(n2cccn2)C1` (stereo not drawn) | -20.29 and -14.82 and -23.46 |
| 11 | `Cc1ccccc1CC(=O)N[C@@H]1CCC[C@@H](N2CCNC(=O)C2)[C@@H]1O` | 7.085 |
| 12 | `CC(C)c1nn(C)c(N(C)C)c1CNCc1cccc2c1OCO2` | -0.08977 |
| 13 | `Cl.O=C(C1CC1)N1CCOC2(CCNCC2)C1` | 3.971 |
| 14 | `CC1CN(C)CCN1C(=O)c1ccn(-c2ccc(F)cc2)n1` (stereo not drawn) | 4.619 |
| 15 | `CC(C(=O)N1CCCN(c2ccccc2C#N)CC1)n1cccn1` (stereo not drawn) | -5.628 |
| 16 | `CN(Cc1cccnc1)CC1CCCN1c1cccnn1` (stereo not drawn) | 12.49 |
| 17 | `Cc1cccc(-c2noc([C@@H]3Cc4nc[nH]c4CN3)n2)c1` | 77.23 and 75.76 |
| 18 | `CC(C)Nc1ccc2nc(C3CCN(C(C)C)CC3)nn2c1.O=C(O)C(F)(F)F` | -4.961 |
| 19 | `Cc1c(NCCCOc2cccc(C#N)c2)cccc1C(N)=O` | -8.215 |
| 20 | `Cc1c[nH]nc1C1CN(c2ncccn2)CCO1` (stereo not drawn) | 4.208 |
| 21 | `CN(C)C(C(=O)NCCSc1ncn[nH]1)c1cccc(F)c1` (stereo not drawn) | -3.246 |
| 22 | `CCOCC1CN(C(=O)c2ccco2)Cc2cnn(CC)c21` (stereo not drawn) | -10.58 |
| 23 | `CN(Cc1cnn(C)c1)C(=O)C(c1ccccc1)N1CCSCC1` (stereo not drawn) | -1.471 |
| 24 | `O=C(c1ccc(Br)s1)N1CCN(Cc2ccc(OC(F)(F)F)cc2)CC1` | 1.299 |
| 25 | `Cn1ccc(C(=O)N2CCCCC23CC(=O)N(Cc2ccccc2)C3)n1` (stereo not drawn) | -4.106 |
| 26 | `Cc1noc(C)c1C(C)C(=O)N1CCCN(Cc2cscn2)CC1` (stereo not drawn) | -6.852 |
| 27 | `O=C(NC1CCS(=O)(=O)c2ccccc21)c1sccc1C1CC1` (stereo not drawn) | -23.74 and -22.35 |
| 28 | `CNc1snc(C)c1C(=O)N1CCCC(n2ccnc2C)C1` (stereo not drawn) | 0.8544 |
| 29 | `CNS(=O)(=O)c1cccc(CNC(=O)c2cc(C)no2)c1` | 6.752 |
| 30 | `Cc1nc(NCc2cccnc2)cc(C2COCCN2)n1` (stereo not drawn) | -2.246 |
| 31 | `Cc1cnn(CC2CCCCN2C(=O)c2cc(C(N)=O)cs2)c1` (stereo not drawn) | 9.069 |
| 32 | `Cl.O=C(Nc1cccc(CNCc2cccs2)c1)C1CC1` | -4.2 |
| 33 | `CC(NC(=O)NCCCNS(C)(=O)=O)c1ccncc1` (stereo not drawn) | -24.58 |
| 34 | `CN(C)C(=O)CNC(=O)Nc1cccc(Cl)c1SC(F)F` | 3.359 |
| 35 | `CC(C)N(Cc1cnn(C)c1)CC1CCCN(S(C)(=O)=O)C1` (stereo not drawn) | -6.171 |
| 36 | `Cc1nc(CN2CCC(N(C)Cc3nnc(C4CC4)n3C)C2)oc1C` (stereo not drawn) | -5.569 |
| 37 | `Cc1cccc(-c2nc(CN3CCCC3Cn3cc(C)cn3)no2)c1` (stereo not drawn) | 15.07 |
| 38 | `Cn1cc(CCNC(=O)NCc2ccc3c(c2)OCCO3)cn1` | 20.29 |
| 39 | `COc1ccccc1C1=NOC(CC2(C(=O)NC(C)C)CCOCC2)C1` (stereo not drawn) | 12.7 |
| 40 | `CCCc1n[nH]c(C2CN(C(=O)c3ccnc(C4CC4)n3)CCO2)n1` (stereo not drawn) | -103.8 and -103.6 and 18.4 |
| 41 | `O=C(c1ccc(Br)o1)N1CCCC(n2cncn2)C1` (stereo not drawn) | -19.93 |
| 42 | `Cc1nc(CN2CCCC(Cn3cncn3)C2)nc2ccccc12` (stereo not drawn) | -40.48 and 17.61 and -23.76 |
| 43 | `Cc1ccc(C(=O)N2CCn3cc(CN(C)Cc4ccco4)nc3C2)o1.O=C(O)C(F)(F)F` | -11.73 |
| 44 | `Cc1nc(C)c(C(=O)N2CCC(O)(Cn3ccc4ccncc43)CC2)s1` | -3.54 |
| 45 | `Cc1ncsc1C(=O)NCCNc1ncccn1` | -1.706 |
| 46 | `O=C(CN1C(=O)CCC1=O)N1CCOC2(CCOCC2)C1` | 44.17 and 45.04 |
| 47 | `NC(=O)c1cnn2c(C3CCN(CCO)CC3)ccnc12` | -0.8417 |
| 48 | `O=C(CCn1c(C(F)(F)F)cc2cccnc21)N1CCC(O)CC1` | -0.593 |
| 49 | `CSc1c[nH]nc1NS(=O)(=O)c1ccc(C)c(C)c1` | -9.091 |
| 50 | `CNC(=O)NCC(=O)N1CCCC1Cc1cccc(F)c1` (stereo not drawn) | -17.6 |
| 51 | `COc1cccc(C2CCCN2C(=O)c2cc3c(nc2OC)CCC3)c1` (stereo not drawn) | 3.432 |
| 52 | `CCc1nc(N2CCN(c3ncccn3)CC2)c2cnn(C)c2n1` | -4.462 |
| 53 | `O=C(O)C(F)(F)F.O=C(c1cnccn1)N1CCCC2(COCCN(CC3CC3)C2)C1` (stereo not drawn) | -22.48 |
| 54 | `O=C(O)C(F)(F)F.[H][C@@]12CCN(C3CCOCC3)C[C@@]1([H])O[C@@H](C(=O)N1CCCC1)C2` | -2.193 |
| 55 | `O=C(C1CCCO1)N1CCCC2(CCN(c3cccnc3)CC2)C1.O=C(O)C(F)(F)F` (stereo not drawn) | 7.449 |
| 56 | `O=C(O)C(F)(F)F.[H][C@@]12CCN(c3ncccn3)C[C@]1([H])[C@H](C(=O)NCc1ccco1)CCO2` | 4.875 |
| 57 | `O=C(CCOc1cccc(F)c1)N1CCCC(n2cncn2)C1` (stereo not drawn) | -21.72 |
| 58 | `CNC[C@H]1CC[C@H](c2cc(CN(C)S(=O)(=O)N(C)C)n(C)n2)CC1.Cl` | 1.255 |
| 59 | `CN(C)C1COC2(CCN(Cc3nccs3)CC2)C1.O=C(O)C(F)(F)F.O=C(O)C(F)(F)F` (stereo not drawn) | 12.48 |
| 60 | `CC(C)[C@@H]1CN(Cc2cnc3c(S(C)(=O)=O)cnn3c2)C[C@H]1N(C)C` | -14.56 and -10.29 |
| 61 | `NC(=O)C1CCCN(c2ccc(CNC(=O)c3csnn3)cc2)C1` (stereo not drawn) | 4.845 |
| 62 | `Cc1ccccc1N1CC2(CCN(S(=O)(=O)C3CC3)C2)CC1=O` (stereo not drawn) | 3.307 |
| 63 | `Cc1ncsc1C(=O)N1CCCCC1c1cc2nc(C)c(C)c(O)n2n1` (stereo not drawn) | -0.2498 |
| 64 | `COCC1CN(Cc2ccc(C)o2)Cc2ncn(CC3CC3)c21` (stereo not drawn) | -5.453 |
| 65 | `Cn1cc(CN2CCC3(CC2)CN(c2cccnc2)C(=O)CO3)cn1` | 14.83 |
| 66 | `CCn1cc(C(=O)NC2CCN(S(C)(=O)=O)CC2)c2ccccc21` | -10.15 |
| 67 | `Fc1ccc(CN2CCCC3(CCN(Cc4ncc[nH]4)C3)C2)cc1F` (stereo not drawn) | -13.61 |
| 68 | `O=C(Cn1cc(C(=O)O)ccc1=O)Nc1ccc(Cl)cc1F` | 8.114 |
| 69 | `N#Cc1ccc(F)c(CN2CCc3sccc3C2)c1` | 5.586 |
| 70 | `COc1ccc2[nH]cc(C(=O)N3C[C@@H](O)[C@H](N4CCOCC4)C3)c2c1` | 10.49 |
| 71 | `Cc1ccc(CNCC2CCN(CC(O)c3ccccc3)CC2)o1` (stereo not drawn) | 6.931 |
| 72 | `COc1cccc(OC)c1C(=O)N1CCN(c2ccccc2F)CC1` | 13.9 |

The first 4 entries again:

COc1nn(C)c2c1CCCN(C(=O)c1cccc(C)n1)C2.O=C(O)C(F)(F)F gave 6.24%.
Cc1cc(CN2CCOC(CN(C)c3cccnn3)C2)no1 (stereo not drawn) gave -0.6936%.
O[C@H]1[C@H](n2cc(-c3cccnc3)nn2)c2ccccc2C12CCNCC2 gave -18.59%.
COc1ccc(C(C)N2CCN(Cc3nccn3C)CC2)cc1Cl (stereo not drawn) gave -1.308%.